Where “and” joins values, the source holds several entries; their conditions need not be identical. Equal values may be shown once. This is one part of the list. Shown are side measurements of this screen, not its main read-out; they come without a call. Most of these compounds were active or inconclusive in the main read-out, so they are no random draw. Words in brackets tell the shape of the fitted curve; partial curves, single points and poor fits give uncertain potencies.

These results are taken from PubChem BioAssay AID445 (National Center for Advancing Translational Sciences (NCATS), 2006).

The assay can be described thus: IkB Signaling. The following applies: ABC-DLBCL IkBa-CBG/CBR dual luciferase ratio (green luciferase fused to IkBa over red control in OCI-Ly3 lymphoma cells), 4 h. An outline of the steps:
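Luminescence ratio of IκBα-fused green versus native red beetle luciferase in OCI-Ly3 cells, 4 h post-doxycycline with compound; red signal alone, scaled from basal (0%) to zero light (-100%), flagged nonspecific or cytotoxic effects.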

The mark [1] stands for this setting: measured here: control luc red channel unless noted.

Regarding `O=C(COC(=O)c1n[nH]c2ccccc12)Nc1ccc(S(=O)(=O)N2CCCC2)cc1`, the AC50 under setting [1] is 10 µM [falling, partial curve].

`COc1ccc(-n2c(=O)c3ccccc3n(Cc3ccccc3C)c2=O)c(OC)c1`: the AC50 under setting [1] was 10 µM [falling, partial curve].

As to `CC(=O)Nc1nonc1-c1nnc(SCC(=O)Nc2ccc(C)c(Cl)c2)n1-c1ccccc1`, the AC50 under setting [1] was 15.8 µM [falling, partial curve].

As to `CCOc1ccc(C(=O)c2cnc3ccc(Cl)cc3c2S(=O)(=O)c2ccc(C)cc2)cc1`, under setting [1], the AC50 is 0.251 µM [falling, full curve].

Turning to `Cc1ccc(-n2nc(CO)c(C(=O)NCCCc3ccccc3)n2)cc1`, the AC50 under setting [1] is 15.8 µM [falling, partial curve].

`O=C(Nc1ccccc1)N1CCC(c2ccccc2)C1` (centres undefined): the half-maximal activity concentration (AC50) under setting [1] was 2.51 µM [falling, partial curve].

Regarding `O=C(CSc1nnc2ccc3ccccc3n12)c1ccc(F)cc1`, the concentration at half-maximal activity (AC50) under setting [1] is 15.8 µM [falling, partial curve].

Turning to `Cc1ccc(C(=O)Nc2onc3c2CCCC3)cc1`, the AC50 under setting [1] is 0.316 µM [rising, full curve, poor fit].

Turning to `Cc1ccccc1C(=O)Nc1ccc2c(c1)CCCN2C(=O)c1cccs1`, under setting [1], the half-maximal activity concentration (AC50) is 15.8 µM [falling, single point].

In the case of `COc1ccc(C(=O)N2CCC(c3nc(-c4ccc(S(=O)(=O)N5CCCC5)cc4)no3)CC2)cc1`, under setting [1], the AC50 is 15.8 µM [falling, partial curve].

Turning to `CCCn1c(SCC(=O)N2CCN(c3ccccc3)CC2)nc2ccccc2c1=O`, under setting [1], the AC50 was 10 µM [falling, partial curve].

For `COc1ccc(C(=O)Nc2ccc(-c3nc4ccccc4s3)cc2C)cc1Cl`, the AC50 under setting [1] is 15.8 µM [rising, partial curve].

`COC(=O)c1cc(-c2ccc(OC)c(OC)c2)c2c(=O)[nH]c(=O)n(C)c2n1`: the half-maximal activity concentration (AC50) under setting [1] was 3.98 µM [rising, partial curve].

On to `O=S(=O)(Nc1nc2ccccc2s1)c1ccc(Br)s1`, for which, under setting [1], the AC50 is 12.6 µM [falling, partial curve].

`O=C(c1cc(-c2ccc(Cl)c(Cl)c2)on1)N1CCCCC1`: the concentration at half-maximal activity (AC50) under setting [1] is 0.0158 µM [falling, full curve].

As for `Cc1ccc(-n2ncc3c(Nc4ccccc4C)ncnc32)cc1`, under setting [1], the AC50 is 39.8 µM [falling, single point].

On to `COc1cccc(Cn2c(NCc3ccc(C)cc3)nc3c2c(=O)n(C)c(=O)n3C)c1`, for which the AC50 under setting [1] was 25.1 µM [falling, partial curve, poor fit].

`O=C(CCCn1c(=O)c2sccc2n(Cc2cccc(Cl)c2)c1=O)NCc1ccc2c(c1)OCO2`: under setting [1], the AC50 was 31.6 µM [falling, single point].

Turning to `CNS(=O)(=O)c1cn(CC(=O)N2CCN(c3cc(C)ccc3C)CC2)cc1S(=O)(=O)NC`, under setting [1], the half-maximal activity concentration (AC50) was 25.1 µM [falling, single point].

With `Cc1cc(C)cc(NC(=O)CSCc2cc(=O)c3ccc(C)c(C)c3[nH]2)c1`, the AC50 under setting [1] is 15.8 µM [falling, partial curve, poor fit].

Regarding `O=C(Nc1ccc2oc(-c3ccccc3F)nc2c1)c1ccc2c(c1)OCCO2`, under setting [1], the AC50 is 3.16 µM [falling, full curve].

Turning to `COc1ccc(NC(=O)CSc2nc(-c3ccco3)nc3cc(=O)[nH]n23)cc1`, under setting [1], the AC50 is 31.6 µM [falling, single point].

With `Fc1ccc(Cn2c(-c3cccc(Br)c3)nc3ccccc32)cc1`, the AC50 under setting [1] is 39.8 µM [falling, single point].

For the compound `Cc1nn2c(C)c(C(=O)NCC(C)c3ccccc3)cnc2c1-c1ccccc1` (centres undefined), under setting [1], the AC50 is 31.6 µM [falling, single point].

On to `O=C(NCCc1nc2ccccc2n1CCCOc1ccc(Cl)cc1)C1CCCCC1`, for which the AC50 under setting [1] was 15.8 µM [falling, partial curve].

As for `Cc1cccc(NC(=O)c2sc3nc(-c4ccccc4)cn3c2C)n1`, the concentration at half-maximal activity (AC50) under setting [1] was 3.16 µM [falling, full curve].

For the compound `Cc1cccc(NC(=O)CSc2nccn2-c2cccc(Cl)c2)c1C`, under setting [1], the AC50 is 15.8 µM [falling, partial curve].

Consider `COc1ccc(C(=O)Nc2noc3ccccc23)cc1`, for which the AC50 under setting [1] was 10 µM [falling, partial curve].

For `Cc1ccc(NC(=O)c2sc(-n3nc(C)c(Cc4ccc5c(c4)OCO5)c3C)nc2C)cc1C`, under setting [1], the AC50 was 15.8 µM [falling, partial curve].

For the compound `CCOc1cc(C2c3c(-c4ccccc4O)n[nH]c3C(=O)N2Cc2cccnc2)ccc1O` (centres undefined), under setting [1], the AC50 was 31.6 µM [falling, single point].

Take `COc1ccc(C2CC(=O)Nc3ccccc3S2(=O)=O)cc1OC` (centres undefined): under setting [1], the half-maximal activity concentration (AC50) was 20 µM [falling, partial curve].

Turning to `O=C(Nc1ccc(F)c(Cl)c1)c1ccc2c(=O)n3c(nc2c1)CCCCC3`, the AC50 under setting [1] was 3.98 µM [falling, partial curve].

Regarding `CC(C)N(CCC(=O)c1ccc2ccccc2c1)Cc1ccccc1`, the AC50 runs as follows: (measured here: IkB-luc green channel) 20 µM [falling, full curve, poor fit]; (measured here: control luc red channel) 7.94 µM [falling, full curve] and 3.98 µM [falling, partial curve].

Regarding `COc1ccc(Cn2c(=O)oc3ccc(C)cc32)cc1OC`, under setting [1], the AC50 is 7.94 µM [falling, partial curve].

Regarding `CCS(=O)(=O)N1CCc2cc(C(=O)Nc3cc(C(F)(F)F)ccc3Cl)ccc21`, the AC50 under setting [1] is 10 µM [falling, partial curve].

On to `CCOc1cc(C(=O)N2CCC(c3ccncc3)CC2)cc(OCC)c1OCC`, for which the concentration at half-maximal activity (AC50) under setting [1] was 3.16 µM [rising, partial curve, poor fit].

As to `COc1ccc(Cl)cc1NC(=O)CSc1nc(-c2ccco2)cc(C(F)(F)F)n1`, the AC50 under setting [1] was 25.1 µM [falling, single point].

For `CCCCN(c1ccccc1)S(=O)(=O)c1ccc2c(c1)CC(C)N2C(=O)C1CC1` (centres undefined), the AC50 under setting [1] is 5.01 µM [falling, partial curve].

On to `CCc1ccccc1Nc1nc2ccccc2n2cnnc12`, for which, under setting [1], the AC50 is 7.94 µM [falling, full curve].

Take `CCOC(=O)C1CCN(C(c2cccs2)c2sc3nc(C)nn3c2O)CC1` (centres undefined): the AC50 under setting [1] was 31.6 µM [rising, partial curve] [measured here: IkB-luc green channel].

Turning to `CCOC(=O)c1ccc(NC(=O)COC(=O)c2cn(CC)c3nc(C)ccc3c2=O)cc1`, the AC50 under setting [1] is 0.251 µM [rising, full curve, poor fit].

On to `Cc1cccc(C)c1OC(=O)CSc1nnc(-c2cccs2)o1`, for which the AC50 under setting [1] was 10 µM [falling, partial curve].

Take `COc1ccc(OC)c(NS(=O)(=O)c2ccc3[nH]c4c(c3c2)CCCCC4)c1`: under setting [1], the AC50 was 20 µM [falling, partial curve].

Turning to `Cc1ccc(F)c(NC(=O)Nc2ccc3snnc3c2)c1`, the AC50 under setting [1] was 1.58 µM [rising, full curve].

Regarding `Cc1ccc(C(C)NC(=O)c2cc(C)oc2C)cc1` (centres undefined), the AC50 under setting [1] is 12.6 µM [falling, partial curve].

With `Cc1ccc2c(c1)nnn2C1CCN(S(=O)(=O)c2cccc(S(=O)(=O)N(C)C)c2)CC1`, the AC50 under setting [1] is 31.6 µM [falling, single point].

As to `O=C1c2[nH]nc(-c3ccccc3O)c2C(c2cccc(Cl)c2)N1Cc1cccnc1` (centres undefined), the AC50 under setting [1] was 20 µM [falling, partial curve].

Consider `CCOC(=O)c1sc(NC(=O)CSc2n[nH]c(-c3ccccc3)n2)c(C#N)c1C`, for which the AC50 under setting [1] was 3.16 µM [falling, full curve].

In the case of `O=C(c1ccc(CSc2nc3ccncc3n2Cc2cccc(F)c2)cc1)N1CCCCC1`, the AC50 under setting [1] was 15.8 µM [falling, partial curve].

As for `CN(Cc1ccccc1)Cc1nc2c(c(=O)n(C)c(=O)n2C)n1CCCc1ccccc1`, under setting [1], the AC50 was 15.8 µM [falling, partial curve].

On to `CCOC(=O)c1c(C)oc2ccc(N(C(=O)c3ccncc3)S(=O)(=O)c3ccc(Br)cc3)cc12`, for which the AC50 under setting [1] is 12.6 µM [falling, partial curve].

As to `CC1=C(c2ccc(C(C)C)cc2)S(=O)(=O)NC1=NCc1ccccc1Br`, the AC50 under setting [1] is 15.8 µM [falling, single point].

In the case of `Cc1nn(Cc2ccc(Cl)cc2)c(C)c1NC(=O)c1noc2c1CCCCC2`, under setting [1], the AC50 was 6.31 µM [falling, partial curve].

On to `CC(=O)c1nc2ccccc2n1S(=O)(=O)c1ccc(C)cc1`, for which the AC50 under setting [1] was 3.98 µM [falling, partial curve].

For `CCOc1ccc(CCNC(=O)Cn2ncc3c(=O)oc4ccc(C)cc4c32)cc1`, the AC50 under setting [1] is 39.8 µM [falling, single point].

As to `CCOc1cc2[nH]c(=O)n(CCCC(=O)N3CCN(c4ccc(OC)cc4)CC3)c(=O)c2cc1OCC`, the half-maximal activity concentration (AC50) under setting [1] was 0.01 µM [rising, full curve].

Regarding `Cc1ccc(CN2CCN(CC(=O)NCc3ccc(Cl)cc3)C2=O)cc1`, the AC50 under setting [1] is 15.8 µM [falling, partial curve].

For `CCN(CCNC(=O)Nc1ccc(Cl)cc1)c1ccccc1`, under setting [1], the AC50 is 20 µM [falling, partial curve].

Consider `N=c1n(CCN2CCCCC2)c2ccccc2n1CC(O)COc1ccc(Cl)cc1Cl` (centres undefined), for which the AC50 under setting [1] was 25.1 µM [falling, partial curve].

For `CCN(C1CCCCC1)S(=O)(=O)c1ccc(S(=O)(=O)NCc2ccncc2)cc1`, the AC50 under setting [1] was 12.6 µM [falling, partial curve].

For the compound `CCc1cccc(C)c1NC(=O)CSc1nc2ccccc2nc1N1CCOCC1`, under setting [1], the AC50 was 25.1 µM [falling, single point].

On to `COc1ccc(Cn2c(SCc3ccc(C(=O)NCc4cccs4)cc3)nc3cccnc32)cc1`, for which the AC50 under setting [1] was 20 µM [falling, single point].

For `COc1ccccc1CN1C(=O)CN(C2CCCCCC2)C(=O)C1c1ccc(C)cc1` (centres undefined), under setting [1], the concentration at half-maximal activity (AC50) was 39.8 µM [falling, single point].

The AC50 is the concentration giving half of the maximal activity seen.
